Experimental data reported in US20220401452A1, “USE OF INHIBITORS OF ENHANCER OF ZESTE HOMOLOG 2” (The Board Of Regents of The University of Texas System, priority 2019, published 2022).
For at least one compound, name, drawing or mass did not settle the structure.

Test system: panel of prostate normal and cancer cell lines
Test: Cell proliferation assay (IC50) in a panel of human prostate cell lines
Format: cell-based
Conditions: two benign, two AR-null, eight AR-positive lines; 6 days of treatment

Which “sensitivity of prostate cell lines (IC50, FIG. 1C)” value does the source give for `CC[C@H](C)n1cc(C)c2c(C(=O)NCc3c(C)cc(C)[nH]c3=O)cc(-c3ccc(N4CCNCC4)nc3)cc21` [GSK126] here?
Its value is “Only malignant cells with intact AR signaling, especially the hormone-refractory lines, were sensitive”.
